This is one part of the list.
Key:
Experiment in all cases: glycan array binding signal (z-score within array); higher = stronger binding
Conditions in all cases: glycan notation: IUPAC condensed, linker removed
[1] = biological target: Fuc(a1-3)[Gal3S(b1-4)]GlcNAc
Method in brief: (§1)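 The binding signal is a Z-score computed within each array. Data were drawn from 3228 arrays in the Consortium for Functional Glycomics database, restricted to those with a known protein sequence. Scores were averaged over arrays of the same protein sequence at different concentrations or buffers, and over linkers, and negative values can be taken as non-binding.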

[2] = biological target: Fuc(a1-3)[Gal3S(b1-4)]GlcNAc6S
Method in brief: as §1

[3] = biological target: Fuc(a1-3)[GalNAc(b1-4)]GlcNAc
Method in brief: as §1

[4] = biological target: Fuc(a1-3)[GalNAc(b1-4)]GlcNAc6S
Method in brief: as §1

Fuc(a1-4)GlcNAc = biological target: Fuc(a1-4)GlcNAc
Method in brief: as §1

Fuc(b1-3)GlcNAc = biological target: Fuc(b1-3)GlcNAc
Method in brief: as §1

Gal(a1-2)Gal = biological target: Gal(a1-2)Gal
Method in brief: as §1

Gal(a1-3)Gal = biological target: Gal(a1-3)Gal
Method in brief: as §1

Gal(a1-3)Gal(b1-3)GlcNAc = biological target: Gal(a1-3)Gal(b1-3)GlcNAc
Method in brief: as §1

[5] = biological target: Gal(a1-3)Gal(b1-3)GlcNAc(b1-2)Man
Method in brief: as §1

[6] = biological target: Gal(a1-3)Gal(b1-3)GlcNAc(b1-2)Man(a1-3)[Gal(a1-3)Gal(b1-3)GlcNAc(b1-2)Man(a1-6)]Man(b1-4)GlcNAc(b1-4)GlcNAc
Method in brief: as §1

[7] = biological target: Gal(a1-3)Gal(b1-3)GlcNAc(b1-3)GalNAc
Method in brief: as §1

[8] = biological target: Gal(a1-3)Gal(b1-3)GlcNAc(b1-6)GalNAc
Method in brief: as §1

[9] = biological target: Gal(a1-3)Gal(b1-3)[Fuc(a1-4)]GlcNAc(b1-2)Man(a1-3)[Gal(a1-3)Gal(b1-3)[Fuc(a1-4)]GlcNAc(b1-2)Man(a1-6)]Man(b1-4)GlcNAc(b1-4)GlcNAc
Method in brief: as §1

Gal(a1-3)Gal(b1-4)Glc = biological target: Gal(a1-3)Gal(b1-4)Glc
Method in brief: as §1

Gal(a1-3)Gal(b1-4)GlcNAc = biological target: Gal(a1-3)Gal(b1-4)GlcNAc
Method in brief: as §1

[10] = biological target: Gal(a1-3)Gal(b1-4)GlcNAc(b1-2)Man
Method in brief: as §1

[11] = biological target: Gal(a1-3)Gal(b1-4)GlcNAc(b1-2)Man(a1-3)[Gal(a1-3)Gal(b1-4)GlcNAc(b1-2)Man(a1-6)]Man(b1-4)GlcNAc(b1-4)GlcNAc
Method in brief: as §1

[12] = biological target: Gal(a1-3)Gal(b1-4)GlcNAc(b1-3)GalNAc
Method in brief: as §1

[13] = biological target: Gal(a1-3)Gal(b1-4)GlcNAc(b1-6)GalNAc
Method in brief: as §1

[14] = biological target: Gal(a1-3)Gal(b1-4)[Fuc(a1-3)]GlcNAc
Method in brief: as §1

[15] = biological target: Gal(a1-3)Gal(b1-4)[Fuc(a1-3)]GlcNAc(b1-2)Man(a1-3)[Gal(a1-3)Gal(b1-4)[Fuc(a1-3)]GlcNAc(b1-2)Man(a1-6)]Man(b1-4)GlcNAc(b1-4)GlcNAc
Method in brief: as §1

Gal(a1-3)GalNAc = biological target: Gal(a1-3)GalNAc
Method in brief: as §1

[16] = biological target: Gal(a1-3)[Gal(a1-4)]Gal(b1-4)GlcNAc
Method in brief: as §1

[17] = biological target: Gal(a1-4)Gal(b1-3)GlcNAc(b1-2)Man(a1-3)[Gal(a1-4)Gal(b1-3)GlcNAc(b1-2)Man(a1-6)]Man(b1-4)GlcNAc(b1-4)GlcNAc
Method in brief: as §1

Gal(a1-4)Gal(b1-4)Glc = biological target: Gal(a1-4)Gal(b1-4)Glc
Method in brief: as §1

Gal(a1-4)Gal(b1-4)GlcNAc = biological target: Gal(a1-4)Gal(b1-4)GlcNAc
Method in brief: as §1

[18] = biological target: Gal(a1-4)Gal(b1-4)GlcNAc(b1-2)Man(a1-3)[Gal(a1-4)Gal(b1-4)GlcNAc(b1-2)Man(a1-6)]Man(b1-4)GlcNAc(b1-4)GlcNAc
Method in brief: as §1

[19] = biological target: Gal(a1-4)Gal(b1-4)GlcNAc(b1-3)Gal(b1-4)Glc
Method in brief: as §1

Gal(a1-4)GlcNAc = biological target: Gal(a1-4)GlcNAc
Method in brief: as §1

Gal(a1-6)Glc = biological target: Gal(a1-6)Glc
Method in brief: as §1

Gal(b1-2)Gal = biological target: Gal(b1-2)Gal
Method in brief: as §1

Gal(b1-3)Gal = biological target: Gal(b1-3)Gal
Method in brief: as §1

Gal(b1-3)Gal(b1-4)GlcNAc = biological target: Gal(b1-3)Gal(b1-4)GlcNAc
Method in brief: as §1

Gal(b1-3)GalNAc = biological target: Gal(b1-3)GalNAc
Method in brief: as §1

[20] = biological target: Gal(b1-3)GalNAc(a1-3)[Fuc(a1-2)]Gal(b1-4)Glc
Method in brief: as §1

[21] = biological target: Gal(b1-3)GalNAc(a1-3)[Fuc(a1-2)]Gal(b1-4)GlcNAc
Method in brief: as §1

Gal(b1-3)GalNAc(b1-3)Gal = biological target: Gal(b1-3)GalNAc(b1-3)Gal
Method in brief: as §1

[22] = biological target: Gal(b1-3)GalNAc(b1-3)Gal(a1-4)Gal(b1-4)Glc
Method in brief: as §1

[23] = biological target: Gal(b1-3)GalNAc(b1-4)Gal(b1-4)Glc
Method in brief: as §1

[24] = biological target: Gal(b1-3)GalNAc(b1-4)[Neu5Ac(a2-3)]Gal(b1-4)Glc
Method in brief: as §1

Gal(b1-3)GlcNAc = biological target: Gal(b1-3)GlcNAc
Method in brief: as §1

[25] = biological target: Gal(b1-3)GlcNAc(a1-3)Gal(b1-4)GlcNAc
Method in brief: as §1

[26] = biological target: Gal(b1-3)GlcNAc(a1-6)Gal(b1-4)GlcNAc
Method in brief: as §1

Gal(b1-3)GlcNAc(b1-2)Man = biological target: Gal(b1-3)GlcNAc(b1-2)Man
Method in brief: as §1

B1: DC-Sign-R (Homo sapiens), Q9H2X3 (protein)
chain: MSDSKEPRVQQLGLLEEDPTTSGIRLFPRDFQFQQIHGHKSSTGCLGHGALVLQLLSFMLLAGVLVAILVQVSKVPSSLSQEQSEQDAIYQNLTQLKAAVGELSEKSKLQEIYQELTQLKAAVGELPEKSKLQEIYQELTRLKAAVGELPEKSKLQEIYQELTRLKAAVGELPEKSKLQEIYQELTRLKAAVGELPEKSKLQEIYQELTELKAAVGELPEKSKLQEIYQELTQLKAAVGELPDQSKQQQIYQELTDLKTAFERLCRHCPKDWTFFQGNCYFMSNSQRNWHDSVTACQEVRAQLVVIKTAEEQNFLQLQTSRSNRFSWMGLSDLNQEGTWQWVDGSPLSPSFQRYWNSGEPNNSGNEDCAEFSGSGWNDNRCDVDNYWICKKPAACFRDE
glycan array binding signal (z-score) [1]: 0.105 | glycan array binding signal (z-score) [2]: -0.375 | glycan array binding signal (z-score) [3]: 0.243 | glycan array binding signal (z-score) [4]: 0.11 | glycan array binding signal (z-score) (Fuc(a1-4)GlcNAc): -0.26 | glycan array binding signal (z-score) (Fuc(b1-3)GlcNAc): -0.411 | glycan array binding signal (z-score) (Gal(a1-2)Gal): -0.279 | glycan array binding signal (z-score) (Gal(a1-3)Gal): -0.907 | glycan array binding signal (z-score) (Gal(a1-3)Gal(b1-3)GlcNAc): 1.29 | glycan array binding signal (z-score) [5]: -0.789 | glycan array binding signal (z-score) [6]: -0.669 | glycan array binding signal (z-score) [7]: 0.273 | glycan array binding signal (z-score) [8]: -0.383 | glycan array binding signal (z-score) [9]: -0.719 | glycan array binding signal (z-score) (Gal(a1-3)Gal(b1-4)Glc): -0.655 | glycan array binding signal (z-score) (Gal(a1-3)Gal(b1-4)GlcNAc): -0.63 | glycan array binding signal (z-score) [10]: -0.666 | glycan array binding signal (z-score) [11]: 0.087 | glycan array binding signal (z-score) [12]: 0.529 | glycan array binding signal (z-score) [13]: -0.796 | glycan array binding signal (z-score) [14]: -0.822 | glycan array binding signal (z-score) [15]: -0.757 | glycan array binding signal (z-score) (Gal(a1-3)GalNAc): -0.111 | glycan array binding signal (z-score) [16]: -0.469 | glycan array binding signal (z-score) [17]: -0.125 | glycan array binding signal (z-score) (Gal(a1-4)Gal(b1-4)Glc): -0.687 | glycan array binding signal (z-score) (Gal(a1-4)Gal(b1-4)GlcNAc): -0.25 | glycan array binding signal (z-score) [18]: -0.683 | glycan array binding signal (z-score) [19]: -0.685 | glycan array binding signal (z-score) (Gal(a1-4)GlcNAc): -0.867 | glycan array binding signal (z-score) (Gal(a1-6)Glc): -0.326 | glycan array binding signal (z-score) (Gal(b1-2)Gal): -0.796 | glycan array binding signal (z-score) (Gal(b1-3)Gal): -0.88 | glycan array binding signal (z-score) (Gal(b1-3)Gal(b1-4)GlcNAc): -0.852 | glycan array binding signal (z-score) (Gal(b1-3)GalNAc): -0.793 | glycan array binding signal (z-score) [20]: 0.585 | glycan array binding signal (z-score) [21]: 1.15 | glycan array binding signal (z-score) (Gal(b1-3)GalNAc(b1-3)Gal): -0.574 | glycan array binding signal (z-score) [22]: -0.376 | glycan array binding signal (z-score) [23]: -0.285 | glycan array binding signal (z-score) [24]: -0.645 | glycan array binding signal (z-score) (Gal(b1-3)GlcNAc): -0.714 | glycan array binding signal (z-score) [25]: 0.126 | glycan array binding signal (z-score) [26]: 1.38 | glycan array binding signal (z-score) (Gal(b1-3)GlcNAc(b1-2)Man): -0.708
